Values quoted from earlier work in patent US20160375016A1, “METHODS FOR REDUCING ANXIETY AND IMPULSIVITY IN SUBJECTS INITIATING TREATMENT WITH SEROTONIN REUPTAKE INHIBITORS” (THE JOHNS HOPKINS UNIVERSITY, priority 2013, published 2016).
The name of at least one read-out is uncertain.

Conditions: single 40-mg dose of Prozac; cited from earlier work

## CNCCC(Oc1ccc(C(F)(F)F)cc1)c1ccccc1 (stereo not shown) [fluoxetine]
  time to reach Cmax (Tmax): 7 h
